Results taken from patent US20040191812, “Target-dependent transcription using deletion mutants of N4 RNA polymerase” (published 2004).
Tags and fusion partners may be left off the protein sequences shown.

Target: T1, N4 mini-vRNAP (His-tagged) (Bacteriophage N4) (UniProt Q859P9)
T1 sequence: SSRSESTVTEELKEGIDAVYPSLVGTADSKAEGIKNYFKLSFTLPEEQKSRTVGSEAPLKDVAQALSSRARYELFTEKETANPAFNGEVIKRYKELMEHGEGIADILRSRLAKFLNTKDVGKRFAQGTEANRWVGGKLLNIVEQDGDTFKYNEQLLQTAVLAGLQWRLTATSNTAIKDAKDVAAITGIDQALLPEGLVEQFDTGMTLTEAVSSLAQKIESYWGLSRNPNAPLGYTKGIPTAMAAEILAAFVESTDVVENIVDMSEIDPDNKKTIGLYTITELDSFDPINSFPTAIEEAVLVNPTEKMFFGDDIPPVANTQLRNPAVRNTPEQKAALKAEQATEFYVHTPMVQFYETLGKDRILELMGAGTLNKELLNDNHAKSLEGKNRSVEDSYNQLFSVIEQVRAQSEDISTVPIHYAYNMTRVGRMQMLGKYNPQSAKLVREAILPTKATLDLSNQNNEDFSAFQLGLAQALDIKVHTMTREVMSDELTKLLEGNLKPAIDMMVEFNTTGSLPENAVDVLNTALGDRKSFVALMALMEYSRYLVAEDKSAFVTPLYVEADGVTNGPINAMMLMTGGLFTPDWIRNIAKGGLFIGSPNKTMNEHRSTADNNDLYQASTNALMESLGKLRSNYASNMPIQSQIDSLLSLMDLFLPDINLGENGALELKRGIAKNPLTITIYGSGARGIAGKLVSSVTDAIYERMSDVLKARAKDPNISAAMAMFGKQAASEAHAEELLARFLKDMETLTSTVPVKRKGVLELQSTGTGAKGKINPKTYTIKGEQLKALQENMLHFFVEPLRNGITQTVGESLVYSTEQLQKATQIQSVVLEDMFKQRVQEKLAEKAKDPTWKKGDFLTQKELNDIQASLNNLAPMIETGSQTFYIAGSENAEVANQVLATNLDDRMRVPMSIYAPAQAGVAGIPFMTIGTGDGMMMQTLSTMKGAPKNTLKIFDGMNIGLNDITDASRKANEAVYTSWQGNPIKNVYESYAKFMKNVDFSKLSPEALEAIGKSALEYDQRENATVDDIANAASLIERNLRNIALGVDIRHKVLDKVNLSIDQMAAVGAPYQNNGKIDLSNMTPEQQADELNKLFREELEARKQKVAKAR
Assay: activity assay
Conditions: purified recombinant protein, protein details: N-terminal hexahistidine (pBAD), single-stranded DNA

Question: For “ACCCAGACAAAAGGAAAAGAAAACAAACAGGAAAGGAAGCAAAACAACAACCAAAAGAAGCGGAGCTTC [no T ssDNA template]”, which “activity on this sequence” value (transcription template in A misincorporation assay, about 1/(2x10^4), variant of control ssDNA template) is on record?
Answer: Its value is “active”.

Question: “TCCCACACAAAACCTTAACATTTCATACACCATTCCATCCATTACTTCATCCAAAAGAAGCGGAGCTTC [no G ssDNA template]” was tested. Which “activity on this sequence” value (transcription template in C misincorporation assay, about 1/(4x10^4), variant of control ssDNA template) did it give?
Answer: Its value is “active”.

Question: How did the “activity on this sequence” value (transcription with UTP, digoxigenin-UTP or biotin-UTP) turn out when “TCCCAGACAAAAGGTTAAGATTTCATACAGGATTGGATGCATTACTTCATCCAAAAGAAGCGGAGCTTC [control ssDNA template]” was run?
Answer: The value was “active”.

Question: How did the “activity on this sequence” value (transcription template in U misincorporation assay, about 1/(5x10^4), variant of control ssDNA template) turn out when “TCCCTGTCTTTTGGTTTTGTTTTCTTTCTGGTTTGGTTGCTTTTCTTCTTCCAAAAGAAGCGGAGCTTC [no A ssDNA template]” was run?
Answer: Its value is “active”.

Question: “TGGGAGAGAAAAGGTTAAGATTTGATAGAGGATTGGATGGATTAGTTGATGGAAAAGAAGCGGAGCTTC [no C ssDNA template]” was tested. Which “activity on this sequence” value (transcription template in G misincorporation assay, about 1/(5x10^4), variant of control ssDNA template) did it give?
Answer: The value was “active”.
